# Data taken from US11203577B2, “Sulfonyl-structure-containing triazinone derivatives, their preparation methods and their uses in insect killing and/or bacterium killing” (Nankai University, priority 2017, dated 2021).
# For at least one compound, name, drawing or mass did not settle the structure.
# Test system: bean aphides (Aphis laburni Kaltenbach)
# Assay: Test of insecticidal activity against aphides (leaf immersion, checked after 96 h)
# Details: 5 mg/kg
smiles,measurement,value
"CC1=NNC(=O)N(NS(C)(=O)=O)C1 [Ia-1, N-(6-methyl-3-oxo-2,3-dihydro-1,2,4-triazin-4(5H)-yl)-methylsulfonylamide]",insecticidal activity against aphides compared with pymetrozine,equivalent to the insecticidal activity of pymetrozine
